According to patent US10583112B2, “Benzo[b]furans as bromodomain inhibitors” (GlaxoSmithKline Intellectual Property (No. 2) Limited, priority 2016, dated 2020):
Some results were stated once for a whole list of compounds, not compound by compound.

Target: T1, BRD4 BD2 (Homo sapiens, UniProt O60885, Y97A)
T1 construct: BRD4 (1-477) (Y97A) and (Y390A); made in house; host or cells: E. coli (pET15b vector)
Assay: BRD4 BD2 TR-FRET competition assay
Type: binding
Conditions: for Selectivity for BRD4 BD2 over BRD4 BD1 (BRD4 BD2 pIC50 - BRD4 BD1 pIC50): in at least one of the TR-FRET assays; for fold selective for BRD4 BD2 over BRD4 BD1: inferred from the log unit selectivity
Experimental: Bromodomain binding was assessed utilising a time resolved fluorescent resonance energy transfer (TR-FRET) competition assay. […] Europium chelate, conjugated to an anti-6*His antibody, was utilised as the donor fluorophore in the TR-FRET pair.
In order to generate a TR-FRET signal, donor fluorophore is excited by a laser at λ337 nm, which subsequently leads to emission at λ618 nm.
In order to monitor differential binding to either BD1 or BD2, single residue mutations of key tyrosines to alanine were made in the acetyl lysine binding pockets. To validate this approach, a double residue mutant tandem domain protein was produced for each of the BET family members.
Final purification was completed by Superdex 200 prep grade size exclusion column. Purified protein was stored at −80° C. in 20 mM HEPES pH 7.5 and 100 mM NaCl.
All assay components were dissolved in an assay buffer composing of 50 mM HEPES pH7.4, 50 mM NaCl, 5% Glycerol, 1 mM DTT and 1 mM CHAPS. […] An equal volume of 3 nM of anti-6*His Europium chelate was added to all wells, followed by a further 30 minute incubation at room temperature. TR-FRET was detected using a Perkin Elmer Multimode plate reader, by exciting the donor fluorophore at λ337 nm and subsequently, after a delay of 50 μsecs, measuring emission of the donor and acceptor fluorophores at λ615 nm and λ665 nm, respectively.
cA four parameter curve fit of the following form was then applied: y=a+((b−a)/(1+(10^x/10^c)^d) • Where ‘a’ is the minimum, ‘b’ is the Hill slope, ‘c’ is the pIC50 and ‘d’ is the maximum.

Row | SMILES | Selectivity for BRD4 BD2 over BRD4 BD1 (BRD4 BD2 pIC50 - BRD4 BD1 pIC50) [log unit] | fold selective for BRD4 BD2 over BRD4 BD1
1 | CNC(=O)c1cc(C(=O)NC2CCC2)cc2c1O[C@H](C)[C@@H]2c1ccccc1 (relative stereo) [Example 1, (2R*,3R*)—N^5-Cyclobutyl-N^7,2-dimethyl-3-phenyl-2,3-dihydrobenzofuran-5,7-dicarboxamide] | ≥ 2 | at least 100 fold
2 | CNC(=O)c1cc(C(=O)NC2CCC2)cc2c1O[C@H](C)[C@H]2c1ccccc1 (relative stereo) [Example 2, (2R*,3S*)—N^5-cyclobutyl-N^7,2-dimethyl-3-phenyl-2,3-dihydrobenzofuran-5,7-dicarboxamide] | ≥ 2 | at least 100 fold
3 | CNC(=O)c1cc(C(=O)NCCC[C@]2(F)CCCNC2)cc2c1O[C@H](CF)[C@H]2c1ccccc1 [Example 72, (2S,3S)-2-(Fluoromethyl)-N^5-(3-((R)-3-fluoropiperidin-3-yl)propyl)-N^7-methyl-3-phenyl-2,3-dihydrobenzofuran-5,7-dicarboxamide] | ≥ 2 | at least 100 fold
4 | CNC(=O)c1cc(C(=O)NCC[C@]2(F)CCCNC2)cc2c1O[C@H](C)[C@H]2c1ccccc1 [Example 74, (2R,3S)—N^5-(2-((R)-3-Fluoropiperidin-3-yl)ethyl)-N^7,2-dimethyl-3-phenyl-2,3-dihydrobenzofuran-5,7-dicarboxamide] | ≥ 2 | at least 100 fold
5 | CNC(=O)c1cc(C(=O)NCCC[C@@H]2CNCCO2)cc2c1O[C@H](CF)[C@H]2c1ccccc1 [Example 76, (2S,3S)-2-(Fluoromethyl)-N^7-methyl-N^5-(3-((R)-morpholin-2-yl)propyl)-3-phenyl-2,3-dihydrobenzofuran-5,7-dicarboxamide] | ≥ 2 | at least 100 fold
6 | CCNC(=O)c1cc(C(=O)N[C@H]2[C@@H]3COC[C@@H]32)cc2c1O[C@H](CF)[C@H]2c1ccccc1 [Example 173, (2S,3S)—N^5-((1R,5S,6r)-3-oxabicyclo[3.1.0]hexan-6-yl)-N^7-ethyl-2-(fluoromethyl)-3-phenyl-2,3-dihydrobenzofuran-5,7-dicarboxamide] | ≥ 2 | at least 100 fold
7 | CNC(=O)c1cc(C(=O)N[C@H]2[C@@H]3COC[C@@H]32)cc2c1O[C@@H](C)[C@@H]2c1ccccc1 [Example 202, (2S,3R)-N^5-((1R,5S,6r)-3-oxabicyclo[3.1.0]hexan-6-yl)-N^7,2-dimethyl-3-phenyl-2,3-dihydrobenzofuran-5,7-dicarboxamide] | ≥ 2 | at least 100 fold
